Data as given in PubChem BioAssay AID1224830 (NIAID, 2016)
Screen: 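Genes whose knock-down alters the TNF-alpha reporter response to LPS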 (primary screen). Cell system: human THP-1 monocytic leukaemia cells, TNF dual-luciferase reporter clone, PMA-differentiated to macrophage-like cells. Knock-down reagent: siRNA pool against human genes, 50 nM. Time to read-out: LPS for 4 h, given about 3 days after siRNA transfection. Challenge: bacterial LPS (TLR4 ligand), 10 ng/ml. Measurement: 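TNF firefly reporter luminescence divided by renilla, normalised to the plate median, then turned into a robust z-score for each replicate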. Scale: TNF reporter robust z-score: higher = stronger TNF reporter response to LPS. Rule for the call: 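a well is active when its z-score exceeds 2.8 or falls below -1.5; control wells carry no call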.
The deposit covers about 18,000 reagents; below is an unselected part. Over the whole deposit, about 2,900 (16%) are marked active. 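Calls are made per well; low scores hint the gene aids the LPS response, high scores that it dampens it.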 A number with no mark means an inactive call. Repeated entries: four replicate wells of each siRNA pool. Reagent sequences are not shown.

target gene | TNF reporter robust z-score
MPLKIP (M-phase specific PLK1 interacting protein) | 0.59
MPLKIP (M-phase specific PLK1 interacting protein) | 0.33
MPLKIP (M-phase specific PLK1 interacting protein) | 0.19
MPLKIP (M-phase specific PLK1 interacting protein) | 0.48
POLR1E (RNA polymerase I subunit E) | -0.47
POLR1E (RNA polymerase I subunit E) | 0.33
POLR1E (RNA polymerase I subunit E) | -0.15
POLR1E (RNA polymerase I subunit E) | -0.43
USP48 (ubiquitin specific peptidase 48) | 0.34
USP48 (ubiquitin specific peptidase 48) | 0.62
USP48 (ubiquitin specific peptidase 48) | -0.48
USP48 (ubiquitin specific peptidase 48) | 0.3
NDFIP2 (Nedd4 family interacting protein 2) | 1.89
NDFIP2 (Nedd4 family interacting protein 2) | 1.3
NDFIP2 (Nedd4 family interacting protein 2) | 1.23
NDFIP2 (Nedd4 family interacting protein 2) | 1.29
MGLL (monoglyceride lipase) | -0.35
MGLL (monoglyceride lipase) | -0.07
MGLL (monoglyceride lipase) | 0.06
MGLL (monoglyceride lipase) | -0.24
NINJ1 (ninjurin 1) | 2.14
NINJ1 (ninjurin 1) | 1.78
NINJ1 (ninjurin 1) | 2.69
NINJ1 (ninjurin 1) | 0.35
REG3G (regenerating family member 3 gamma) | 0.34
REG3G (regenerating family member 3 gamma) | 0.36
REG3G (regenerating family member 3 gamma) | -0.42
REG3G (regenerating family member 3 gamma) | 0.52
CENPF (centromere protein F) | 1.1
CENPF (centromere protein F) | 0.65
CENPF (centromere protein F) | 0.98
CENPF (centromere protein F) | 0.44
SPINDOC (spindlin interactor and repressor of chromatin binding) | -1.09
SPINDOC (spindlin interactor and repressor of chromatin binding) | -0.99
SPINDOC (spindlin interactor and repressor of chromatin binding) | -0.71
SPINDOC (spindlin interactor and repressor of chromatin binding) | -1.04
COPS5 (COP9 signalosome subunit 5) | -1.27
COPS5 (COP9 signalosome subunit 5) | -1.29
COPS5 (COP9 signalosome subunit 5) | -1.52 (active)
COPS5 (COP9 signalosome subunit 5) | -1.59 (active)
HLF (HLF transcription factor, PAR bZIP family member) | 0.77
HLF (HLF transcription factor, PAR bZIP family member) | 2.68
HLF (HLF transcription factor, PAR bZIP family member) | 2.52
HLF (HLF transcription factor, PAR bZIP family member) | 1.36
PFDN2 (prefoldin subunit 2) | -0.66
PFDN2 (prefoldin subunit 2) | 0.05
PFDN2 (prefoldin subunit 2) | 0
KLHDC10 (kelch domain containing 10) | 4.01 (active)
KLHDC10 (kelch domain containing 10) | 0.7
KLHDC10 (kelch domain containing 10) | 0.17
KLHDC10 (kelch domain containing 10) | 1.76
C1GALT1 | -0.25
C1GALT1 | -0.08
C1GALT1 | -0.16
C1GALT1 | -1
MYEOV (myeloma overexpressed) | 1.17
MYEOV (myeloma overexpressed) | -0.54
MYEOV (myeloma overexpressed) | -1.2
MYEOV (myeloma overexpressed) | -0.31
MARCHF11 (membrane associated ring-CH-type finger 11) | -1.96 (active)
MARCHF11 (membrane associated ring-CH-type finger 11) | 0.42
MARCHF11 (membrane associated ring-CH-type finger 11) | 2.42
MARCHF11 (membrane associated ring-CH-type finger 11) | 3.57 (active)
GRM8 (glutamate metabotropic receptor 8) | -0.94
GRM8 (glutamate metabotropic receptor 8) | -0.13
GRM8 (glutamate metabotropic receptor 8) | 0.66
GRM8 (glutamate metabotropic receptor 8) | -0.21
LDLRAD3 (low density lipoprotein receptor class A domain containing 3) | -0.29
LDLRAD3 (low density lipoprotein receptor class A domain containing 3) | -0.17
LDLRAD3 (low density lipoprotein receptor class A domain containing 3) | -1.27
LDLRAD3 (low density lipoprotein receptor class A domain containing 3) | -0.11
MYL9 (myosin light chain 9) | -0.5
MYL9 (myosin light chain 9) | 0.08
MYL9 (myosin light chain 9) | -0.35
MYL9 (myosin light chain 9) | -0.59
YWHAB | -0.06
YWHAB | 0.26
YWHAB | -0.9
YWHAB | -0.14
KRTAP22-1 (keratin associated protein 22-1) | -0.11
KRTAP22-1 (keratin associated protein 22-1) | 0
KRTAP22-1 (keratin associated protein 22-1) | 0.22
KRTAP22-1 (keratin associated protein 22-1) | 0.36
DMRTC2 (DMRT like family C2) | 0.87
DMRTC2 (DMRT like family C2) | 1.31
DMRTC2 (DMRT like family C2) | 1.2
DMRTC2 (DMRT like family C2) | 1.46
GAN (gigaxonin) | 1.21
GAN (gigaxonin) | 1.91
GAN (gigaxonin) | 0.13
GAN (gigaxonin) | 1.41
COBLL1 (cordon-bleu WH2 repeat protein like 1) | -0.05
COBLL1 (cordon-bleu WH2 repeat protein like 1) | 0.94
COBLL1 (cordon-bleu WH2 repeat protein like 1) | -0.13
COBLL1 (cordon-bleu WH2 repeat protein like 1) | -0.19
STAMBP (STAM binding protein) | -0.12
STAMBP (STAM binding protein) | 0.51
STAMBP (STAM binding protein) | 0.67
STAMBP (STAM binding protein) | 0.93
BBLN (bublin coiled coil protein) | -1.39
BBLN (bublin coiled coil protein) | -0.72
BBLN (bublin coiled coil protein) | -1.3
BBLN (bublin coiled coil protein) | -0.17
BAG2 (BAG cochaperone 2) | -1.02
BAG2 (BAG cochaperone 2) | -0.64
BAG2 (BAG cochaperone 2) | -0.68
BAG2 (BAG cochaperone 2) | -0.35
DDX3Y (DEAD-box helicase 3 Y-linked) | 0.39
DDX3Y (DEAD-box helicase 3 Y-linked) | 0.6
DDX3Y (DEAD-box helicase 3 Y-linked) | -0.42
DDX3Y (DEAD-box helicase 3 Y-linked) | -0.05

Quoted from the entries so far for reference:
target gene | TNF reporter robust z-score
MPLKIP (M-phase specific PLK1 interacting protein) | 0.59
MPLKIP (M-phase specific PLK1 interacting protein) | 0.33
MPLKIP (M-phase specific PLK1 interacting protein) | 0.19
MPLKIP (M-phase specific PLK1 interacting protein) | 0.48
POLR1E (RNA polymerase I subunit E) | -0.47
POLR1E (RNA polymerase I subunit E) | 0.33
POLR1E (RNA polymerase I subunit E) | -0.15
POLR1E (RNA polymerase I subunit E) | -0.43
USP48 (ubiquitin specific peptidase 48) | 0.34
USP48 (ubiquitin specific peptidase 48) | 0.62
USP48 (ubiquitin specific peptidase 48) | -0.48
USP48 (ubiquitin specific peptidase 48) | 0.3
NDFIP2 (Nedd4 family interacting protein 2) | 1.89
NDFIP2 (Nedd4 family interacting protein 2) | 1.3
NDFIP2 (Nedd4 family interacting protein 2) | 1.23
NDFIP2 (Nedd4 family interacting protein 2) | 1.29
MGLL (monoglyceride lipase) | -0.35
MGLL (monoglyceride lipase) | -0.07
